# PubChem BioAssay AID1439 (NMMLSC, 2008)
# Chains of the proteins cited; added tags and fusions are not shown.
# UniProt P09471, whole entry, looked up: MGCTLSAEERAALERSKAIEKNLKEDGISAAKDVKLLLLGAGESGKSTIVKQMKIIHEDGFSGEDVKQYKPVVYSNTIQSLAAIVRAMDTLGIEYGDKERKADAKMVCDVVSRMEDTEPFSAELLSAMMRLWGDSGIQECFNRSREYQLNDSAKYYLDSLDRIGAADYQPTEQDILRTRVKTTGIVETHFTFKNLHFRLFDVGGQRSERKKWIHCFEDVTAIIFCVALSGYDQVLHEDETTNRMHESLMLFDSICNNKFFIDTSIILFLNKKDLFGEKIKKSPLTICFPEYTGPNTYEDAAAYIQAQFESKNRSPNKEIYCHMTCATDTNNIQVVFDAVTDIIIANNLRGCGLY
# Screen size: about 220,000 compounds; about 770 (0.35%) were called active. Inconclusive results, whose numbers are uncertain, are shown with a selection of clear calls. No stated cut-off is given here; in the data, active means binding response below about 49% or above about 150%; inconclusive means no clear call, values can overlap the other calls; inactive means in between.
# Target: Guanine nucleotide-binding protein G(o) subunit alpha (Homo sapiens) (UniProt P09471)
# Experiment: RGS7-Galphao binding modulators, primary screen, biochemical, multiplexed bead flow cytometry (AID 1439);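 further: fluorescent Galphao held in activated GDP-AlF4 state binding bead-coupled RGS7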
# Details: at 10 µM, actives lie on both sides
row,Structure (SMILES),binding response (% of control)
1,C=C1CN(CC(=O)OC)S(=O)(=O)c2ccccc21,inconclusive: 89.4%
2,COc1cccc(NC2=C(C#N)C(=O)NC(c3cccc(OC)c3O)S2)c1 (stereo unspecified),inconclusive: 4.89%
3,c1ccc(-c2noc(-c3ccno3)n2)nc1,inconclusive: 205%
4,Cc1c(Br)c(O)c(Br)c2sc(=O)oc12,inconclusive: 52.7%
5,Cc1ccc(S(=O)(=O)NC(C)(C)CN2CCc3ccccc3C2)cc1,inconclusive: 199%
6,CC(C)C(=O)Nc1nc2cc3c(cc2s1)OCCO3,inconclusive: 105%
7,Cc1cc(C)n(C2CCCCC2OC(=O)CCc2ccccc2)n1 (stereo unspecified),inconclusive: 106%
8,O=C(Nc1ccccc1)Nc1ccc(Oc2cccnc2)nc1,inconclusive: 279%
9,CC(=O)Nc1ccc(Nc2ncnc3ccccc23)cc1,inconclusive: 105%
10,CC(=O)C(Cl)C(=O)Nc1ccccc1 (stereo unspecified),inconclusive: 101%
11,COC(=O)C(=Cc1ccc(-c2ccsc2C(=O)OC)o1)C(=O)OC,inconclusive: 104%
12,CCOC(=O)C1CCCN(Cc2nc(CC3CC3)no2)C1 (stereo unspecified),inconclusive: 114%
13,CCOc1ccc(C(C)=O)cc1CN1C(=O)NC2(CCCCCCC2)C1=O,inconclusive: 127%
14,CCN(CC)C(=S)SC1CCCCN(C(=O)c2ccccc2)C1=O (stereo unspecified),inconclusive: 56.5%
15,COc1cnc(-c2ccccc2)nc1OC,inconclusive: 181%
16,CCNc1nc(NC(C)C)nc(N(C#N)C(C)C(=O)N(CC)CC)n1 (stereo unspecified),inconclusive: 134%
17,Nc1cccnc1Oc1ccc(F)cc1,inconclusive: 92.5%
18,Cc1nc2c(-c3ccccc3)c(C)nn2c(SCC(N)=O)c1Cc1ccccc1,inconclusive: 84.9%
19,CN(C)S(=O)(=O)c1ccc(C(=O)OCC(=O)NCc2ccco2)cc1,inconclusive: 72.8%
20,[O-]/C(=C(\C(=S)Nc1ccccc1F)[n+]1ccccc1)c1ccc(OC(F)F)cc1,inconclusive: 102%
21,NC(=O)C1CCN(Cc2nc3c(Br)cc(Br)cc3c(=O)[nH]2)CC1,inconclusive: 101%

row,Structure (SMILES),binding response (% of control)
1,CC(=O)NNc1cc(N2CCOCC2)nc(N2CCOCC2)n1,inconclusive: 102%
2,CC(C)(C)NC(=O)c1cccc(NC(=O)c2ccc(NC(=O)c3ccco3)cc2)c1,inactive: 102%
3,Oc1ccc(N2CCN(c3nnnn3-c3ccccc3)CC2)cc1,inconclusive: 128%
4,Cc1cc(C)c(C(=O)Cn2nc(C)c([N+](=O)[O-])c2C)cc1C,inactive: 98.8%
5,Cc1ccccc1NNC(=O)C(=O)NNc1ccccc1C,inconclusive: 90.9%
6,COc1ccc(C2=Nn3c(nnc3-c3cc(C)[nH]n3)SC2)cc1,inconclusive: 104%
7,CCCc1cc(=O)[nH]c(SCC(=O)Nc2ccc3c(c2)CCC3)n1,inactive: 99.6%
8,Cc1ccc(-n2nc(C)c3c(C)onc3c2=O)cc1,inconclusive: 725%
9,CCCN1CCC(NC(=O)Nc2cccc3ccccc23)CC1,inconclusive: 118%
10,Cc1nnc(SCC(=O)NC(=O)Nc2ccc3c(c2)OCCO3)n1N,inconclusive: 105%
11,Cc1cc(C)c(Cn2cnc3ccccc32)c(C)c1,inconclusive: 96.1%
12,Cc1nccc(-c2ccc3c(c2)OCO3)n1,inconclusive: 107%
13,O=C(NC(=S)N1CCN(C/C=C/c2ccccc2)CC1)c1ccc(Cl)nc1,inconclusive: 2.7%
14,CC(C)(C)OC(=O)NCCc1n[nH]c(=S)o1,inconclusive: 104%
15,COC(=O)c1c(NC(=O)/C=C/C(=O)O)sc(C)c1-c1ccc(C(C)C)cc1,inconclusive: 95%
16,Cn1cc(CN(CCO)Cc2cccs2)c(-c2ccccc2F)n1,inconclusive: 98.2%
17,N#Cc1cc([N+](=O)[O-])ccc1NC(=O)COC(=O)CC1CCCC1,inconclusive: 108%
18,Fc1cccc(Cc2noc(CN3CCCCC3CCc3ccccn3)n2)c1 (stereo unspecified),inactive: 128%
19,CCCCOC(=O)n1c(=O)oc2ccc(S(=O)(=O)N3CCCCC3)cc21,inconclusive: 76.8%
20,CS(=O)(=O)N(CC(=O)Nc1ccc2c(c1)OCCO2)Cc1ccccc1,inactive: 98.2%
21,O=C(O)/C=C/C(=O)Nc1ccc(OCc2ccccc2)cc1,inconclusive: 90.8%

row,Structure (SMILES),binding response (% of control)
1,NC(=O)c1cc(NC(=O)c2ccc(NS(=O)(=O)c3cccs3)cc2)cc(C(N)=O)c1,inconclusive: 121%
2,O=C(O)/C=C\C(=O)NNC(=O)c1cc(-c2ccccc2)n[nH]1,inconclusive: 195%
3,Cc1cc(C)nc(NNC(=O)NC2CCCCC2)n1,active: -8.82%
4,CCOC(=O)C1=C(C)N(CCCCCC(=O)O)C(=O)NC1c1ccccc1OC(=O)c1cccs1 (stereo unspecified),inactive: 101%
5,O=[N+]([O-])c1ccc2c(c1Nc1ccccc1Cl)=NC1(CCCCC1)N=2,inconclusive: 121%
6,O=c1sc2ccccc2c(N2CCN(c3ccccc3)CC2)c1[N+](=O)[O-],inconclusive: 81.9%
7,O=C(CSc1ccc2ccccc2c1)NCCc1ccc(O)c(O)c1,inconclusive: 69.5%
8,Cc1c(CCC(=O)O)c(=O)oc2cc3oc4c(c3cc12)CCCC4,inconclusive: 86.9%
9,CCOc1ccc(N/C(N)=N/c2nc(CSc3nnc(C)s3)cc(=O)[nH]2)cc1,inconclusive: 3.88%
10,O=C(NC1CCCc2ccccc21)c1ccc2c(c1)OCO2 (stereo unspecified),inconclusive: 120%
11,Cc1cc(Sc2nc(N(C)C)nc(N(C)C)n2)nc(Cl)n1,inconclusive: 105%
12,COCCCNC(=S)NNC(=O)c1cc(Cl)c(O)c(Cl)c1,inconclusive: 80.6%
13,NCCCC[C@H]1CNC(=S)N1CC1(c2ccccc2)CC1,inconclusive: 104%
14,CC1(C)CC(=O)C=C(NNC(=O)OC(C)(C)C)C1,inconclusive: 91.1%
15,Cc1cc(C)n2ncc(C(=O)NCc3ccccc3)c2n1,inactive: 98.7%
16,Cc1cc(C)c(C#N)c(N2CCC(C(N)=O)CC2)n1,inconclusive: 104%
17,Cc1cc(Cl)ccc1NNC(=O)CCc1ccccc1,inconclusive: 208%
18,Cc1ccc(SCc2ccc(C(=O)NCc3ccncc3)cc2)cc1,inactive: 96.6%
19,COCCN1C=C2C(=O)C(C)(OC(=O)CCc3ccccc3)C(=O)C=C2C=C1c1ccc(C#N)cc1 (stereo unspecified),inconclusive: 86%

# Twelve structures from above, arranged by formula weight, high to low:
row,Structure (SMILES),binding response (% of control)
2,CC(C)(C)NC(=O)c1cccc(NC(=O)c2ccc(NC(=O)c3ccco3)cc2)c1,inactive: 102%
13,CCOc1ccc(C(C)=O)cc1CN1C(=O)NC2(CCCCCCC2)C1=O,inconclusive: 127%
5,O=[N+]([O-])c1ccc2c(c1Nc1ccccc1Cl)=NC1(CCCCC1)N=2,inconclusive: 121%
11,COC(=O)C(=Cc1ccc(-c2ccsc2C(=O)OC)o1)C(=O)OC,inconclusive: 104%
16,CCNc1nc(NC(C)C)nc(N(C#N)C(C)C(=O)N(CC)CC)n1 (stereo unspecified),inconclusive: 134%
6,COc1ccc(C2=Nn3c(nnc3-c3cc(C)[nH]n3)SC2)cc1,inconclusive: 104%
8,O=C(Nc1ccccc1)Nc1ccc(Oc2cccnc2)nc1,inconclusive: 279%
4,Cc1cc(C)c(C(=O)Cn2nc(C)c([N+](=O)[O-])c2C)cc1C,inactive: 98.8%
2,O=C(O)/C=C\C(=O)NNC(=O)c1cc(-c2ccccc2)n[nH]1,inconclusive: 195%
9,CC(=O)Nc1ccc(Nc2ncnc3ccccc23)cc1,inconclusive: 105%
16,Cc1cc(C)c(C#N)c(N2CCC(C(N)=O)CC2)n1,inconclusive: 104%
14,CC1(C)CC(=O)C=C(NNC(=O)OC(C)(C)C)C1,inconclusive: 91.1%
